In PubChem BioAssay AID328 (DTP/NCI, 2004):
The list is a part of this screen's results and no random one: it is rich in T/C values a quarter to a half above the control, in often repeated tests (any T/C) and in doses without a T/C. Further doses and runs are listed elsewhere. T/C gives the treated animals as a percentage of the vehicle group. Some doses have a count of surviving animals in place of a T/C: the source files T/C as zero there, which appears to mark a toxic dose or a test without result, not a measured value. Some doses without a T/C left all or most animals alive at the check, yet need not have been tolerated: survival well below the control is almost never listed, so the zero probably covers shortened survival too. Counts of survivors are from the toxicity check (mostly the fifth day) where no day follows; animals may have died later. Schedules are NCI's codes, read here as Q, the interval in days (D) or hours (H), X, the number of doses. Some entries were tested several times; the results are listed from low to high. Where survival is the endpoint, the PubChem record calls one and a half times the control and up active, and a quarter to a half above the control has no call in these data; cut-offs in other NCI protocols can differ. Some T/C values carry the count of animals alive at the toxicity check (mostly the fifth day); without a count, all were alive then.

System: BDF1 mice, P388 leukemia ip, median survival T/C
Assay: NCI In Vivo Anticancer Drug Screen. Data for tumor model P388 Leukemia (intraperitoneal) in B6D2F1 (BDF1) mice
Conditions: T/C endpoint: median survival time, higher T/C = longer survival
Method in brief: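 T/C = treated-group survival ÷ vehicle-control survival; tumour transplanted into mice before dosing.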

[1] = dose: 100.0 mg/kg/injection, schedule: Q01DX009 (ip), vehicle: saline
[2] = dose: 200.0 mg/kg/injection, schedule: Q01DX009 (ip), vehicle: saline
[3] = dose: 400.0 mg/kg/injection, schedule: Q04DX003 (ip), vehicle: saline with Tween-80
[4] = dose: 100.0 mg/kg/injection, schedule: Q04DX003 (ip), vehicle: saline with Tween-80
[5] = dose: 400.0 mg/kg/injection, schedule: Q04DX003 (ip), vehicle: saline
[6] = dose: 200.0 mg/kg/injection, schedule: Q01DX009 (ip), vehicle: saline with Tween-80

`Cc1cc2nc3ccc(=[N+](C)C)cc-3sc2cc1N` was tested, and the T/C (dose: 50.0 mg/kg/injection, schedule: Q04DX003 (ip), vehicle: saline) was 127 % of control, the survivor count [1] was 0 of 6 and 1 of 6 and the T/C (dose: 100.0 mg/kg/injection, schedule: Q04DX003 (ip), vehicle: saline) was 127 % of control. The survivor count [2] was 0 of 6 and the survivor count (dose: 200.0 mg/kg/injection, schedule: Q04DX003 (ip), vehicle: saline) was 2 of 6 and 4 of 6.
For `Cc1cc(N(CCCl)CCCl)ccc1C=Nc1cccc(Cl)c1`, the survivor count [3] was 6 of 6.
For `CCOC(=O)C(NC(=O)C(Cc1ccc(N(CCCl)CCCl)cc1)NC(C)=O)C(C)C` (configuration not stated), the T/C (dose: 20.0 mg/kg/injection, schedule: Q04DX003 (ip), vehicle: other) was 142 % of control, the T/C (dose: 66.0 mg/kg/injection, schedule: Q04DX003 (ip), vehicle: saline with Tween-80) was 136 % of control and the T/C [4] was 140 % of control. The T/C (dose: 150.0 mg/kg/injection, schedule: Q04DX003 (ip), vehicle: saline with Tween-80) was 140 % of control.
`COc1cccc2c1C(=O)c1c(O)c3c(c(O)c1C2=O)C[C@@](O)(C(=O)CO)C[C@@H]3OC1CC(NC(=S)Nc2ccc3ccccc3c2)C(O)C(C)O1` (some centres not stated) was tested, and the T/C (dose: 6.25 mg/kg/injection, schedule: Q01DX009 (ip), vehicle: saline) was 137 % of control, the T/C (dose: 25.0 mg/kg/injection, schedule: Q01DX009 (ip), vehicle: saline) was 141 % of control and the T/C (dose: 50.0 mg/kg/injection, schedule: Q01DX009 (ip), vehicle: saline) was 134 % of control. For the same molecule, the T/C [1] was 131 % of control.
For `Clc1ncnc2c1ncn2C1CCCO1` (configuration not stated), the survivor count [5] was 1 of 6.
In the case of `OC(C#CC(O)c1ccccc1)c1ccccc1` (configuration not stated), the survivor count [5] is reported as 5 of 6.
`CC(=O)C(C)(CCC#N)CCC#N` was tested, and the survivor count (dose: 200.0 mg/kg/injection, schedule: Q04DX003 (ip), vehicle: saline with Tween-80) was 0 of 6.
With `O=c1ccc(=O)c2c(=O)c3ccccc3c(=O)c1=2` the survivor count (dose: 200.0 mg/kg/injection, schedule: Q01DX009 (ip), vehicle: Klucel (hydroxypropylcellulose) (HPC)) was 5 of 6 and the survivor count (dose: 400.0 mg/kg/injection, schedule: Q04DX003 (ip), vehicle: Klucel (hydroxypropylcellulose) (HPC)) was 4 of 6.
With `C/C(=N\NC(=O)C(=O)N/N=C(\C)c1ccccc1)c1ccccc1` the survivor count [6] was 6 of 6.
`COc1cc(C(=O)OC2CC34CCNC35CC(OC5(OC)C2O)c2cc3c(cc24)OCO3)ccc1O` (configuration not stated) was tested, and the survivor count (dose: 2.0 mg/kg/injection, schedule: Q01DX010 (ip), vehicle: carboxymethylcellulose (CMC)) was 5 of 6, the survivor count (dose: 4.0 mg/kg/injection, schedule: Q01DX010 (ip), vehicle: carboxymethylcellulose (CMC)) was 6 of 6 and the survivor count (dose: 8.0 mg/kg/injection, schedule: Q01DX010 (ip), vehicle: carboxymethylcellulose (CMC)) was 2 of 6.
`N#CC(Br)(CBr)COc1ccc(Cl)cc1Cl` (configuration not stated) was tested, and the survivor count (dose: 50.0 mg/kg/injection, schedule: Q01DX009 (ip), vehicle: saline with Tween-80) was 5 of 6, the survivor count (dose: 100.0 mg/kg/injection, schedule: Q01DX009 (ip), vehicle: saline with Tween-80) was 0 of 6 and the survivor count [6] was 0 of 6.
In the case of `COC(=O)C(Br)C(Br)c1ccccc1` (configuration not stated), the T/C [6] is reported as 127 % of control.
In the case of `O=c1[nH]c2cc(Cl)c(Cl)cc2o1`, the survivor count [3] is reported as 2 of 6.
With `COc1ccc2c(Cc3ccccc3)cncc2c1O` the T/C [1] was 125 % of control [5 of 6 alive], the survivor count [2] was 3 of 6 and the survivor count (dose: 400.0 mg/kg/injection, schedule: Q01DX009 (ip), vehicle: saline) was 0 of 6.
`CCCCOc1ccc(NC(N)=Nc2ccc(Cl)cc2)cc1` was tested, and the survivor count (dose: 6.25 mg/kg/injection, schedule: Q01DX010 (ip), vehicle: carboxymethylcellulose (CMC)) was 6 of 6, the survivor count (dose: 100.0 mg/kg/injection, schedule: Q01DX010 (ip), vehicle: carboxymethylcellulose (CMC)) was 0 of 6 and the survivor count [4] was 0 of 6. For the same molecule, the survivor count (dose: 200.0 mg/kg/injection, schedule: Q01DX010 (ip), vehicle: carboxymethylcellulose (CMC)) was 0 of 6.
For `CN(C)CC/C=C1\c2ccccc2C(C)(C)c2ccc(Cl)cc21`, the T/C (dose: 22.0 mg/kg/injection, schedule: Q04DX003 (ip), vehicle: saline with Tween-80) was 140 % of control and the T/C (dose: 25.0 mg/kg/injection, schedule: Q01DX009 (ip), vehicle: Klucel (hydroxypropylcellulose) (HPC)) was 138 % of control.
